Test: Bidirectional transport across the Caco-2 cell monolayer (Papp, efflux ratio, mass balance)
Settings: human, Caco-2, pH 7.4

Papp A→B at 1 h: 0.617 ×10⁻⁶ cm/s
Structure (SMILES): CC(C)NCC(O)COc1ccc(CC(N)=O)cc1 (stereo not shown) [atenolol, reference compound]

— publication PMC6331934, “Study of the Biotransformation of Tongmai Formula by Human Intestinal Flora and Its Intestinal Permeability across the Caco-2 Cell Monolayer” (Molecules, 2015)
